# Only a part is listed here, and it is no random draw.
# Protein sequences, listed by entry. Tags and fused reporters are not part of them. Lines headed by an entry give the natural chain unless they say otherwise; changes in a name come on top.
# UniProt O14654: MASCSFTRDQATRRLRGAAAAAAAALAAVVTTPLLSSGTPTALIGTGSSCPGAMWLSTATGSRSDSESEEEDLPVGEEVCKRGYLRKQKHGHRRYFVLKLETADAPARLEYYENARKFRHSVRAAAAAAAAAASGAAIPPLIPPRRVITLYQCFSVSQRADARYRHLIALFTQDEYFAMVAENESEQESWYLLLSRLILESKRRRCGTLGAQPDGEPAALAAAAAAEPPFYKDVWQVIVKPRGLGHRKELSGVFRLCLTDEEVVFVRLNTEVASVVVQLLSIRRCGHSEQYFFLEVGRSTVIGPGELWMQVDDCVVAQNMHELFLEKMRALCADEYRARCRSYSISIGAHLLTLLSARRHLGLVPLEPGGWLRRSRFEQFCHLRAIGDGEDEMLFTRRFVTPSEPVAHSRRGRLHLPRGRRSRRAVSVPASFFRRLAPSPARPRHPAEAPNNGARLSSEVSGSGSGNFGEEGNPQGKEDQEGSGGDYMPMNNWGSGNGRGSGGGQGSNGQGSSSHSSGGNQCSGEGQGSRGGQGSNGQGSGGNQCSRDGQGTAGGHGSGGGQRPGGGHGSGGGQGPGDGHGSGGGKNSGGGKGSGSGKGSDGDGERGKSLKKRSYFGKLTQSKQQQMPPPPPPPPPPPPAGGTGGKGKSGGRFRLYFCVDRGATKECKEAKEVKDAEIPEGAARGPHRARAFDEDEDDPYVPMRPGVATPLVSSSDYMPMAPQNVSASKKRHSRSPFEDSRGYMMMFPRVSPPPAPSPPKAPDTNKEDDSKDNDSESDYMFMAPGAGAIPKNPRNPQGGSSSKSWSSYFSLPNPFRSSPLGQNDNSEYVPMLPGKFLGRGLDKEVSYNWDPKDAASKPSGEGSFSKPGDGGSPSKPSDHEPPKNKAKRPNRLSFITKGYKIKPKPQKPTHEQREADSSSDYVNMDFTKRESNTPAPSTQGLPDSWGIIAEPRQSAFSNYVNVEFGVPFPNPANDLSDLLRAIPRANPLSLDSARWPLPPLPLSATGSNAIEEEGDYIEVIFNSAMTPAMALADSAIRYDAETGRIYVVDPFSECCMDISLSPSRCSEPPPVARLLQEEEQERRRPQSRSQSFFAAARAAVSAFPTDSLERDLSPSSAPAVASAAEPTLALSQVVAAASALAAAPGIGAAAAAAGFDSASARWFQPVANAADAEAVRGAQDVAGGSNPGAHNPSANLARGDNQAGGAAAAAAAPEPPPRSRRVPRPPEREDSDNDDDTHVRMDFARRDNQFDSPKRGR
# UniProt O00487, whole entry, looked up: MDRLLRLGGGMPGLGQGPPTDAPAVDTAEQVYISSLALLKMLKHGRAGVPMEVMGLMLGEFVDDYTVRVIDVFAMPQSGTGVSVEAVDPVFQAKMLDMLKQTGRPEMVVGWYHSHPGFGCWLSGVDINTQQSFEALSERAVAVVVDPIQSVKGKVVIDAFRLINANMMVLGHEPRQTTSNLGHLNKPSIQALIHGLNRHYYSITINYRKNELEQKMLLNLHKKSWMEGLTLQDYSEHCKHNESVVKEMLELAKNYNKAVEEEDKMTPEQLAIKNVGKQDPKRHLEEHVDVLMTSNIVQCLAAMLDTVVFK
# UniProt O00151: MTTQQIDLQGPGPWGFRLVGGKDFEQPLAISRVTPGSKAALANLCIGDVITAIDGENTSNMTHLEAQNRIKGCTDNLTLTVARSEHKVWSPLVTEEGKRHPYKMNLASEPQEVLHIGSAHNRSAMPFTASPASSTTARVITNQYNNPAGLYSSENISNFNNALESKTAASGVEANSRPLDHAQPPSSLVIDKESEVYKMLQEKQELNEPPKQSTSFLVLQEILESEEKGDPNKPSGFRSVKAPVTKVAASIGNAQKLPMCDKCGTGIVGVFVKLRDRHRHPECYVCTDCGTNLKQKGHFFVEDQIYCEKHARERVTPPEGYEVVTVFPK
# UniProt O15042: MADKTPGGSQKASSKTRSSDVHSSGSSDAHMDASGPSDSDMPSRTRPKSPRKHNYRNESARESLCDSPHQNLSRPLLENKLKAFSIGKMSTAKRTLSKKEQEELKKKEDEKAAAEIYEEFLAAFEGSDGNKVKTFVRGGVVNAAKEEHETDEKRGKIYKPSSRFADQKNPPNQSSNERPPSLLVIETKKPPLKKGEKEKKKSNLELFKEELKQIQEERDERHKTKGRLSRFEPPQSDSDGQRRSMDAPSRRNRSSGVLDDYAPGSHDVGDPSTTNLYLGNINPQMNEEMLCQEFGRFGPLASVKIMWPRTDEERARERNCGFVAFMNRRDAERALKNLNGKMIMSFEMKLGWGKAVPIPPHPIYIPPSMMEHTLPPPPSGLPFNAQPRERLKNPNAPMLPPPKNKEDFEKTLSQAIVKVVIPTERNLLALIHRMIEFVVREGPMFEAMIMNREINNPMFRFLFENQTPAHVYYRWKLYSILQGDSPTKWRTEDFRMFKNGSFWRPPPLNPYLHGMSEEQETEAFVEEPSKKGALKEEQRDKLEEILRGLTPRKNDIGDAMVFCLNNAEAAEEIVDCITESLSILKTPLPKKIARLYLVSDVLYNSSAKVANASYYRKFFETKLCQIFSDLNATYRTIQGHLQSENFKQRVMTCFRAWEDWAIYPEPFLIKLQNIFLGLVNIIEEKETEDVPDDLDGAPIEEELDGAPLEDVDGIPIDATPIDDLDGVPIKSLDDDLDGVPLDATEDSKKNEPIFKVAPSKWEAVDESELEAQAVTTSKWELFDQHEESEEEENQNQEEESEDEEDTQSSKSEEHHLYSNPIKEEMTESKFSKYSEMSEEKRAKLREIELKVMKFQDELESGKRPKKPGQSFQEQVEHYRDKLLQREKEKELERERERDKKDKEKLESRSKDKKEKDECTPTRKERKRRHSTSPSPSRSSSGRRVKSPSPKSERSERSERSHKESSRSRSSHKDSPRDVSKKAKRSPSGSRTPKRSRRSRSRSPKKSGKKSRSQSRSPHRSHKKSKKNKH
# UniProt O00425, whole entry, looked up: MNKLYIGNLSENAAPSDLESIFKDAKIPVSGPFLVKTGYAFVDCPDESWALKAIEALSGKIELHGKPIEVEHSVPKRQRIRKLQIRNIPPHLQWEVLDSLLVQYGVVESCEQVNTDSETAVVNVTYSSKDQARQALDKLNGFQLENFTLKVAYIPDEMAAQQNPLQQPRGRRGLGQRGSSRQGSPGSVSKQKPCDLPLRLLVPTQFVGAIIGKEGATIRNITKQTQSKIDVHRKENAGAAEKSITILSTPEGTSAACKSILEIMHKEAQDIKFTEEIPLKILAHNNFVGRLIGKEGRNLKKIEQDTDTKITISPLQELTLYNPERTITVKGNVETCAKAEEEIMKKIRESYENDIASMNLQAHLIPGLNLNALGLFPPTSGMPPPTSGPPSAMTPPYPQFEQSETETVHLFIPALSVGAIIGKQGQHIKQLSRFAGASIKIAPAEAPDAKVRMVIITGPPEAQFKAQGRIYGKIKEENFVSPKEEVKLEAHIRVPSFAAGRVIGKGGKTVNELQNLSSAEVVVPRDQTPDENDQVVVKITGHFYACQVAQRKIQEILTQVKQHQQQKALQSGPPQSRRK
# UniProt O14715, whole entry: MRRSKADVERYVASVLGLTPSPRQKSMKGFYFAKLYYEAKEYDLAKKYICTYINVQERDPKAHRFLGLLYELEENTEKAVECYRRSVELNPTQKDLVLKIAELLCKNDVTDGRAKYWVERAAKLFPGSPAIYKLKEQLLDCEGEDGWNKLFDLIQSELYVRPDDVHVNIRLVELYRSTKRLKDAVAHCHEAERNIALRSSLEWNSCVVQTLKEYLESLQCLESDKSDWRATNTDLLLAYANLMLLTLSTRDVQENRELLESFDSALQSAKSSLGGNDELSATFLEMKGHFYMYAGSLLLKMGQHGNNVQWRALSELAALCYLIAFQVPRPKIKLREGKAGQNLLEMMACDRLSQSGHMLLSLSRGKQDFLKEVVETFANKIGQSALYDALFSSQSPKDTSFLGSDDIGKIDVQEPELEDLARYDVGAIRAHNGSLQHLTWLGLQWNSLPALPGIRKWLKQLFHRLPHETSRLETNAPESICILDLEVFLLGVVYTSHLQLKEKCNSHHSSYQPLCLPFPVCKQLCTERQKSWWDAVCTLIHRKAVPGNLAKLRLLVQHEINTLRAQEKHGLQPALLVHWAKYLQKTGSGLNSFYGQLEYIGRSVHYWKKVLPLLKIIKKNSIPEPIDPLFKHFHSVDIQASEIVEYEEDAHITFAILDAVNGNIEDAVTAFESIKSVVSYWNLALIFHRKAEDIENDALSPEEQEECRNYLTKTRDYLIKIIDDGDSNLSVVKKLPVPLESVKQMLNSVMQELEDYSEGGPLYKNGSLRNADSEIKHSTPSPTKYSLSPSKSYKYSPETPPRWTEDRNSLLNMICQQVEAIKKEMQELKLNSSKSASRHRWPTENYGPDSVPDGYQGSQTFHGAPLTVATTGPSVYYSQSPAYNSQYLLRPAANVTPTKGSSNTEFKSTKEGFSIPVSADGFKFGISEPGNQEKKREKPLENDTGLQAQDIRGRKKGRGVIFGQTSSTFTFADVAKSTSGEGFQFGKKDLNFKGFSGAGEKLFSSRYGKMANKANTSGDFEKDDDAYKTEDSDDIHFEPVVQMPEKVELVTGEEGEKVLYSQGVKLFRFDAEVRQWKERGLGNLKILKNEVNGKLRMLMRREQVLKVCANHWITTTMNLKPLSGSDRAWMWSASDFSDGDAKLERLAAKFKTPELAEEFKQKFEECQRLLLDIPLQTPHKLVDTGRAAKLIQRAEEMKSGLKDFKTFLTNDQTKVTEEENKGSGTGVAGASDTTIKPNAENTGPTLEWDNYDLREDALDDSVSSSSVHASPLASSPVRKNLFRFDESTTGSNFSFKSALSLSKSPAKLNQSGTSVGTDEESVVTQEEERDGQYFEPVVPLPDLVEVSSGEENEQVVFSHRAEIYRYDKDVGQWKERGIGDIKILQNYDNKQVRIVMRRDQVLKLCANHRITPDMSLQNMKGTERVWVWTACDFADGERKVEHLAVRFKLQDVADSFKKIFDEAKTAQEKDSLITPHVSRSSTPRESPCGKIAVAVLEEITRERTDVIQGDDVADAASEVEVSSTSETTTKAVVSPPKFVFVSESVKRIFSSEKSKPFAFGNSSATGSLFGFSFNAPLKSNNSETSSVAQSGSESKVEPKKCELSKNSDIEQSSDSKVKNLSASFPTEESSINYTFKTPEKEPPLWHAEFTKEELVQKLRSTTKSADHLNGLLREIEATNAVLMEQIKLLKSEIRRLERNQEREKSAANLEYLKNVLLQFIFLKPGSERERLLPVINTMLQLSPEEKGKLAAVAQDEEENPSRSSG
# UniProt O15355: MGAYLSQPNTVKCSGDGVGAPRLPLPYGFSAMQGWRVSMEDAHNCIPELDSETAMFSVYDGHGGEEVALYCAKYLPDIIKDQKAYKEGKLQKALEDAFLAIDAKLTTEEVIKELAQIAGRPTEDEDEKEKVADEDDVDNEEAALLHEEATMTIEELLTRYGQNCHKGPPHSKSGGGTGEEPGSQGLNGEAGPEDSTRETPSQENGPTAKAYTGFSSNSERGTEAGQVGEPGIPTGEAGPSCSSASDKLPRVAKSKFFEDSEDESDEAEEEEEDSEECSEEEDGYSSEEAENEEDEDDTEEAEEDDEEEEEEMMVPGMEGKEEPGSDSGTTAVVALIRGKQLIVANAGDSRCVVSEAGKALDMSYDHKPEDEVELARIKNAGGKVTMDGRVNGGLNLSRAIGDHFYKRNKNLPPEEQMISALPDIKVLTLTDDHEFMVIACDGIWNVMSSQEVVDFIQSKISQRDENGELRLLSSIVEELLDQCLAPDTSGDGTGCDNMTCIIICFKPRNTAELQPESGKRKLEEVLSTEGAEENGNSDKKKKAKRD
# UniProt O15226: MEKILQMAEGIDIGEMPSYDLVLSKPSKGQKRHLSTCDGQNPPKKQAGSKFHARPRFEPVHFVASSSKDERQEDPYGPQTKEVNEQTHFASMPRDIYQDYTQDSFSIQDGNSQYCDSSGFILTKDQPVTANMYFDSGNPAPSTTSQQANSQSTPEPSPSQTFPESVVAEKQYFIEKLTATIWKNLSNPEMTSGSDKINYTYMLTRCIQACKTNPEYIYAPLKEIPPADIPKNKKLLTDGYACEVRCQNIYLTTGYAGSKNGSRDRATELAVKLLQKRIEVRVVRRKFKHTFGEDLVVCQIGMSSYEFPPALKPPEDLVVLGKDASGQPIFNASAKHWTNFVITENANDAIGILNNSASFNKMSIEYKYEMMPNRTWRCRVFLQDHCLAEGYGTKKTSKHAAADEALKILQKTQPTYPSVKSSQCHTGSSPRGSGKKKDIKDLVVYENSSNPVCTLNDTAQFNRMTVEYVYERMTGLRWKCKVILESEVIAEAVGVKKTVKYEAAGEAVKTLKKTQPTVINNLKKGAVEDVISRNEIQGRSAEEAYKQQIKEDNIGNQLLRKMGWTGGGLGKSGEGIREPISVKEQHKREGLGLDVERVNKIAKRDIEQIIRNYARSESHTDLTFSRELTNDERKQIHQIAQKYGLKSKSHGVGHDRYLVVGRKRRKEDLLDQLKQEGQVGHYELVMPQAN
# Compound: COC(=O)C#Cc1ccccc1 [methyl 3-phenylpropiolate]
# Assay: log2 ratio of iodoacetamide-alkyne labeling of the cysteine site, DMSO over compound (competition); higher = stronger covalent engagement of the cysteine by the compound, active = 1 or more
# Conditions: 500 µM; treatment time 1 h; system: HEK293T cell lysate
# Method in brief: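 Reporter intensities give each cysteine's log2 competition ratio as the mean of control channels over the mean of compound channels. The samples were HEK293T lysate (2 mg/mL) given vehicle or electrophile (500 µM, 1 h, ambient temperature), then iodoacetamide alkyne (1 h), followed by click coupling to sCIP-TMT reagents, pooling, trypsin digestion overnight at 37 °C, streptavidin enrichment, acid elution, Orbitrap Eclipse LC-MS/MS with FAIMS and FragPipe quantification. Duplicate channels and three replicates were run, and cysteines quantified in only one replicate were discarded.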
row,Target,log2 ratio of iodoacetamide-alkyne labeling
1,IRS4 C1065 (UniProt O14654),inactive: 0.793
2,UniProt O00567_C211,active: 1.14
3,UniProt O00487_C238,inactive: 0.531
4,PDLIM1 C307 (UniProt O00151),inactive: -0.118
5,PIK3R2 C396 (UniProt O00459),inactive: -0.0814
6,UniProt O15042_C320,inactive: 0.307
7,CIT C402 (UniProt O14578),inactive: 0.955
8,IGF2BP3 C194 (UniProt O00425),inactive: 0.154
9,UniProt O14715_C1431,inactive: 0.0806
10,UniProt O15042_C291,active: 1
11,PPM1G C164 (UniProt O15355),inactive: 0.668
12,NKRF C424 (UniProt O15226),inactive: 0.422
13,TRAFD1 C482 (UniProt O14545),active: 1.55
14,DDX3X C317 (UniProt O00571),inactive: 0.124
15,ZZEF1 C162 (UniProt O43149),inactive: 0.261
16,UniProt O15042_C65,inactive: 0.257

# Part of the list above, reformatted.
row	Target	log2 ratio of iodoacetamide-alkyne labeling
4	PDLIM1 C307 (UniProt O00151)	inactive: -0.118
13	TRAFD1 C482 (UniProt O14545)	active: 1.55

# Reference: the supplement of paper PMC11006884
